Data taken from the supplement of paper PMC3334620.
In all, about 33,000 sequences were measured (“E-score (-0.5 to 0.5)”: median about -0.015, highest 2% from about 0.3 on). The list shows a part of the results.

The sequences below were run against T1, Abf1 (UniProt P14164) (assay: PBM E-score (8-mer binding enrichment) (E-score (-0.5 to 0.5)); higher = stronger / more preferred TF binding). Details: protein concentration: 200 nM; construct: GST-full length.
T1 sequence: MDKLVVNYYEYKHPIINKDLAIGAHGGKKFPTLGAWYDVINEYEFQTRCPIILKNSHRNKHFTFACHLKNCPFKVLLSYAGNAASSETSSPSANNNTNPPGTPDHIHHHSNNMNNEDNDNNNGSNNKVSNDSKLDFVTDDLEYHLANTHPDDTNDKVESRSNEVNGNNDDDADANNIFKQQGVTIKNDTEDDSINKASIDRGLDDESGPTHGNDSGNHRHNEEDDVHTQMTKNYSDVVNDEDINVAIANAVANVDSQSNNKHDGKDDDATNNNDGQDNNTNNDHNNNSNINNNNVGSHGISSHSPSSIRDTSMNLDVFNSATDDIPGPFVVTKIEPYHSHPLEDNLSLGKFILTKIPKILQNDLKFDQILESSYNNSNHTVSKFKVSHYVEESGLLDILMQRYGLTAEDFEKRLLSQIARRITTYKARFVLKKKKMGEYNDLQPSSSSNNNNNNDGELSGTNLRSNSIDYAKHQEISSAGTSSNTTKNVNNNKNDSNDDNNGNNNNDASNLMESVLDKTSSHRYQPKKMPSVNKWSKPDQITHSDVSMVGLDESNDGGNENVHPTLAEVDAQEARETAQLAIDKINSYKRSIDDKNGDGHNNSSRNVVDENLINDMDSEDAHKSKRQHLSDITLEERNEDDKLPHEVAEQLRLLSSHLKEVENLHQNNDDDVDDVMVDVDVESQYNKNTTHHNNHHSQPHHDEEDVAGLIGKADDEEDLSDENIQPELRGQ
Method: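 Universal 'all 10-mer' protein binding microarrays (Agilent AMADID 015681) probed with GST-tagged S. cerevisiae TFs (full-length or DBD) made by in vitro transcription/translation (PURExpress), about 100-200 nM. Bound TF was detected with fluorescent anti-GST. Each ungapped 8-mer (which stands for itself and its reverse complement) is scored by the PBM enrichment score (E-score), a modified Wilcoxon-Mann-Whitney statistic from -0.5 to +0.5, computed with the Universal PBM Analysis Suite. Scale: above 0.35 generally sequence-specific binding.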

Sequence | PBM E-score
ACCCGGCA | 0.0507
CAACAAAG | -0.0536
CCGCAATA | 0.0386
ATCGGGCG | -0.248
CGATGAGC | -0.142
AATAGTAC | 0.132
ATGCGCAT | 0.293
AAGGTGGC | -0.0615
CTATGAAG | -0.0657
GCGTGAAC | -0.0162
CGTACGAG | 0.343
CGTTTGAA | 0.297
CTACGCTC | -0.0362
ATCTCCTC | -0.0278
AGTAGGGA | -0.0301
GCTCTGTA | -0.0948
AGTAAAAA | 0.0745
CCGAATGA | 0.192
CGGCGCAC | 0.0813
AGCCTCAC | -0.154
ACGGGGGG | -0.0967
ACCACCGT | 0.153
AATGAACC | -0.0853
AATATTCC | 0.135
AAATAATT | 0.212

Sequence | PBM E-score
GCGCCCCC | -0.324
CCGTCGAG | 0.218
ATTTTGCG | 0.0127
AAGGGTTA | 0.0193
ATACTGTC | -0.0337
CTCCTGCA | -0.227
AGGCGCGC | -0.125
AGAAGTCA | 0.18
ATGTTTAA | 0.136
AGAGAACG | 0.172
ACAAAGGG | -0.106
CGGCTACG | -0.182
GAGTCTAA | -0.0556
CGACAGAA | 0.0352
CGTGCCAC | 0.114
GCTTTCAA | 0.128
GGCACACA | -0.115
CGTGTTAA | 0.198
CATCCGAG | -0.169
GGAGCTCA | -0.186
ACAGGCTC | -0.0662
ATTGCTAG | -0.12
AGCGTGGA | 0.125
GGGGTAAC | -0.117
CGGTTCAA | 0.0375

Sequence | PBM E-score
GCCAGGGA | -0.181
ATCACAAA | 0.159
AACATCGA | 0.12
CCGTTAAA | 0.0775
AGTCCTTA | -0.0603
CTCAGAAC | 0.0271
CACAGCCG | -0.0828
CTACCAAC | 0.229
CTTACCGC | -0.258
AGACGCAG | -0.229
GGACCGCA | -0.155
ACTCAACA | -0.0269
CGTGAGGA | 0.0867
GACGCTGC | -0.121
GCCAATGA | -0.0329
AGTTACCC | -0.0787
ACTAAAGA | 0.0616
CAGTTTTA | -0.103
ACCCTAGA | -0.0437
CTTCAAAG | -0.0884
ATCAGGAT | -0.0211
CAGTCCAC | -0.061
CCAGGTAG | -0.228
CGACGTAG | 0.134
CAATTCGA | 0.0173

Sequence | PBM E-score
GCTTATCC | -0.103
ATGTACAG | -0.0808
AGAATTTC | -0.109
ATCCGGTA | -0.0976
ATCCGGAT | -0.131
AGAGATGC | 0.089
ATGTCCAG | 0.0563
CCAAAGGA | -0.255
ACATCAAA | 0.0333
ATTTGAAA | 0.0979
ACAACCCT | -0.134
ACCGTACG | 0.34
GGATCGAC | -0.0847
GGCAGAGA | 0.0118
CCAGCTTA | -0.0646
AATATAAG | 0.196
AACCTGAT | 0.0781
AATACTGT | 0.00307
CACCGGCG | -0.0421
AACTGCAT | 0.0766
TGACGCAA | -0.0094
CAATCCTC | 0.0413
CGGCCATC | -0.17
ACGAATCA | 0.258
AATATGCT | 0.0979

Sequence | PBM E-score
AGTGGGGG | -0.323
AGAAGTTG | -0.0778
ATGGAGCC | -0.27
TAATGTGA | 0.103
CTGTGGAC | -0.166
CCCCGGGC | -0.231
GTAGTTCA | -0.261
CAAGGCAC | -0.211
AAGCACTG | -0.132
GTACCTGA | 0.0126
TATAAGCA | 0.196
AGATATTG | 0.146
AACTCCTA | 0.0268
CCGTTTGC | -0.0132
GAGGACTC | -0.235
CATACCAG | -0.218
GCTGGTTA | -0.0104
AAAGTTAG | -0.0275
ATGTCGCC | 0.116
CACAAAAA | 0.0732
ATATGAAG | 0.0962
ATGTGCAA | -0.0475
CACTAGCC | 0.144
ACGATTAT | 0.179
AGCAGGTG | -0.0258

Sequence | PBM E-score
AACCGCCT | -0.101
GCGCCCCA | -0.155
AACAGCTC | -0.292
AGGAAATG | 0.0706
TAAGTAAA | 0.0817
ATTTTGAG | 0.192
CGGTCACC | 0.166
AGCGGGCA | -0.22
CAGTTGCG | -0.0457
AAGCTAAA | -0.0592
ACAGTTTG | -0.0118
AATCCACC | -0.0574
ACACTGGT | -0.0409
ATAACGTG | 0.203
CCGTACAA | 0.432
CGAGCCAG | 0.101
AGCCTATC | -0.0675
CAAGCCAG | -0.132
CAAATGGA | -0.0896
ACTGTACG | 0.123
ACCCCGGG | -0.0061
ATTATCGG | 0.0733
GGGAGTCA | -0.245
GCTCCATA | -0.193
CGTGCTCC | -0.0862

Reformatted tab-delimited: entries from further up.
Sequence	PBM E-score
AATATTCC	0.135
CGTGTTAA	0.198
GGAGCTCA	-0.186
AACCTGAT	0.0781

More records:

Sequence | PBM E-score
ACCCCATG | -0.0419
CTGCAAGA | -0.0282
ATAACCAT | 0.0871
GACAGAAC | 0.0672
GACTCTCC | -0.0969
AAATCCGT | 0.0895
GACTGACA | 0.105
TTCCGGAA | -0.106
CAAAGAAA | 0.11
ACCTTGCG | -0.0227
CTACCGGC | -0.224
AGAGTCCA | -0.101
ATTCGGTG | -0.0175
AAGCTACT | 0.0421
ACCTACCG | -0.126
CGCTGAAG | -0.0468
ACGTGCAG | 0.0588
GTTATGAA | 0.0974
CAATTGAA | 0.0172
CCGTTGCA | 0.021
CTGGATGC | -0.0926
GAGTCATC | 0.18
AACTCCTT | 0.0135
ATGAAGGA | 0.111
ATCAATTG | 0.0641

Sequence | PBM E-score
GCCACCCA | -0.336
ACCTCGCG | 0.0902
CTCTTTGA | -0.148
AGCGTCAG | -0.0296
ACTTCGTA | 0.297
CCTGATGA | 0.139
AAGAATCG | 0.189
GACAACGC | 0.0391
ACTTACCC | 0.0246
GGGGATGA | 0.114
AAGTGAGC | 0.0982
TAAGCCGA | 0.0917
CCCACACA | -0.113
ACGACCTG | 0.0542
ACTACCTC | -0.117
GTAAGCTA | 0.146
ATAAACCC | 0.079
CAAACAAC | 0.0993
ACTTCTGA | -0.0108
AAATTGTA | 0.184
TAGTAACA | 0.233
CAGCCGTC | 0.0544
AATGCCTC | -0.0892
ATTGTATG | 0.109
CGCTATTC | -0.00249

Taken from above:
Entry for AGCGTCAG under PBM E-score: -0.0296
Entry for ACGACCTG under PBM E-score: 0.0542
Entry for CCTGATGA under PBM E-score: 0.139
Entry for CAAACAAC under PBM E-score: 0.0993

The list goes on.

Sequence | PBM E-score
GCAGCTTA | -0.195
ACGAGTTA | 0.157
CCCCAAGA | -0.0818
GTCTAGAC | 0.00361
ATACCGCC | -0.12
GTCTTGTA | -0.191
ATCTGGCC | -0.183
TAATTGCA | 0.0292
TAATGGTA | 0.0646
CCTCCCAC | -0.188
ACCAAATC | -0.0649
AGATTACC | -0.0321
CTTCGGCA | -0.0117
AGGTTCTC | -0.152
GTAAGTAC | 0.116
CTTATGCA | 0.142
AGCACGAA | 0.217
GCCTGCTA | -0.1
AGTGAGGC | -0.0618
